{"sequences": {"note": "Protein sequences, listed by entry. Tags and fused reporters are not part of them. Lines headed by an entry give the natural chain unless they say otherwise; changes in a name come on top.", "UniProt Q99615": "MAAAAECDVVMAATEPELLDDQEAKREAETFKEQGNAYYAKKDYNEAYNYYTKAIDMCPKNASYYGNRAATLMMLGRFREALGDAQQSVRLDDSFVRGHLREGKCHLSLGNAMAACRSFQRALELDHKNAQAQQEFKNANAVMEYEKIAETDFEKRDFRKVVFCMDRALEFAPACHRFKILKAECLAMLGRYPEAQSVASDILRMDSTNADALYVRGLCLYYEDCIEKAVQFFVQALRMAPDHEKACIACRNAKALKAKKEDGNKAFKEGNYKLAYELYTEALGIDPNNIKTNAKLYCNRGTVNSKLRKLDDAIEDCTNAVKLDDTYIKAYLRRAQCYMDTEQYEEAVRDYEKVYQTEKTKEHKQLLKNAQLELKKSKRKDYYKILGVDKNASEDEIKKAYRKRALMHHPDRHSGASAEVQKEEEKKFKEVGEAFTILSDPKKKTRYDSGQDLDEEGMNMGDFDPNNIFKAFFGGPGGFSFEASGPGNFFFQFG", "UniProt Q9UPY3": "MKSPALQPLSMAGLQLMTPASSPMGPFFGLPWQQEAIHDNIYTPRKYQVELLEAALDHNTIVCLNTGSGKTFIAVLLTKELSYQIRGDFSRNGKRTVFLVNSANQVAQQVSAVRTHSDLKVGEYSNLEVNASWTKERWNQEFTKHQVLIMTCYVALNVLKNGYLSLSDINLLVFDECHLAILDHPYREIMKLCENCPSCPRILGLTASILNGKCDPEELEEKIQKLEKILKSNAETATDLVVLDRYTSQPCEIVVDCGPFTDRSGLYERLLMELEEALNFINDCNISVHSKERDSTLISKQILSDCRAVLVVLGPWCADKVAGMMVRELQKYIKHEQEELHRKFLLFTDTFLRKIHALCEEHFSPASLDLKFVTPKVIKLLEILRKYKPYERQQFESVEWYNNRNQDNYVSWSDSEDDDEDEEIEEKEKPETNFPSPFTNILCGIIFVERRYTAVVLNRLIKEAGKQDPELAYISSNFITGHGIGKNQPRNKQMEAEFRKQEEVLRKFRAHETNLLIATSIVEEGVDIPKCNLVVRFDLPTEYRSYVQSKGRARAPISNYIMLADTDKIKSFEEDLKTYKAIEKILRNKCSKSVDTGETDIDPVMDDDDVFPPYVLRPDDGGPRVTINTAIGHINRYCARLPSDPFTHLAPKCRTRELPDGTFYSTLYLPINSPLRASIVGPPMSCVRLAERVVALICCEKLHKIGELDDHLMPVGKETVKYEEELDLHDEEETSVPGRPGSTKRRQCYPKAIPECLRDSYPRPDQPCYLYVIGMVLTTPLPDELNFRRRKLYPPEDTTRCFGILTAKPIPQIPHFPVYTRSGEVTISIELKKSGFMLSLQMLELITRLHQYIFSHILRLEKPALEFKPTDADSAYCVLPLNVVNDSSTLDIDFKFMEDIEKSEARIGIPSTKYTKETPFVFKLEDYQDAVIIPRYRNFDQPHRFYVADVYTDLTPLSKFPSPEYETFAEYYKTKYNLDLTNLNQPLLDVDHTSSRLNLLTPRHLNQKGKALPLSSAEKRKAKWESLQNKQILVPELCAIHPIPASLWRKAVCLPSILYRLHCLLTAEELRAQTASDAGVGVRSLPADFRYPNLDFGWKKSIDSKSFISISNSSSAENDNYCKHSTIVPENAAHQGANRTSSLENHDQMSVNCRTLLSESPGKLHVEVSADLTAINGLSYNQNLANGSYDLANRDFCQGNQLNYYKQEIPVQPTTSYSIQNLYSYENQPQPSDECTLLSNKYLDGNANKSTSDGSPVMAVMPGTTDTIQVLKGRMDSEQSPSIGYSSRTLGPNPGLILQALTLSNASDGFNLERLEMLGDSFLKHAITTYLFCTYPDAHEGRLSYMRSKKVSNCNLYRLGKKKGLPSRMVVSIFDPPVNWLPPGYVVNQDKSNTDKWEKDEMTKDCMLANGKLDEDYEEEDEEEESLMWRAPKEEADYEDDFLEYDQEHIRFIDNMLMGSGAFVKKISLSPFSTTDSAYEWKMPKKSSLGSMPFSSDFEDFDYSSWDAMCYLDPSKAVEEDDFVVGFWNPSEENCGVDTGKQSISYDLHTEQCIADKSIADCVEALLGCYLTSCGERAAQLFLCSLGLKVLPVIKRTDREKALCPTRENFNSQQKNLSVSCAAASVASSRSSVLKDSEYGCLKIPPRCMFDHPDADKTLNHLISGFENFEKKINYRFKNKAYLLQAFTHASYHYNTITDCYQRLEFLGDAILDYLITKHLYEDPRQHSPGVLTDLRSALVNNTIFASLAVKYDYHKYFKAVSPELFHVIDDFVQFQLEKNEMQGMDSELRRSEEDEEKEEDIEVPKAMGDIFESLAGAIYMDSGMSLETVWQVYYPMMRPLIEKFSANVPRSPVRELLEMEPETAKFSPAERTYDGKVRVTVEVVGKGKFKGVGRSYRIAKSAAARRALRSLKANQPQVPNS", "UniProt Q5VZ89": "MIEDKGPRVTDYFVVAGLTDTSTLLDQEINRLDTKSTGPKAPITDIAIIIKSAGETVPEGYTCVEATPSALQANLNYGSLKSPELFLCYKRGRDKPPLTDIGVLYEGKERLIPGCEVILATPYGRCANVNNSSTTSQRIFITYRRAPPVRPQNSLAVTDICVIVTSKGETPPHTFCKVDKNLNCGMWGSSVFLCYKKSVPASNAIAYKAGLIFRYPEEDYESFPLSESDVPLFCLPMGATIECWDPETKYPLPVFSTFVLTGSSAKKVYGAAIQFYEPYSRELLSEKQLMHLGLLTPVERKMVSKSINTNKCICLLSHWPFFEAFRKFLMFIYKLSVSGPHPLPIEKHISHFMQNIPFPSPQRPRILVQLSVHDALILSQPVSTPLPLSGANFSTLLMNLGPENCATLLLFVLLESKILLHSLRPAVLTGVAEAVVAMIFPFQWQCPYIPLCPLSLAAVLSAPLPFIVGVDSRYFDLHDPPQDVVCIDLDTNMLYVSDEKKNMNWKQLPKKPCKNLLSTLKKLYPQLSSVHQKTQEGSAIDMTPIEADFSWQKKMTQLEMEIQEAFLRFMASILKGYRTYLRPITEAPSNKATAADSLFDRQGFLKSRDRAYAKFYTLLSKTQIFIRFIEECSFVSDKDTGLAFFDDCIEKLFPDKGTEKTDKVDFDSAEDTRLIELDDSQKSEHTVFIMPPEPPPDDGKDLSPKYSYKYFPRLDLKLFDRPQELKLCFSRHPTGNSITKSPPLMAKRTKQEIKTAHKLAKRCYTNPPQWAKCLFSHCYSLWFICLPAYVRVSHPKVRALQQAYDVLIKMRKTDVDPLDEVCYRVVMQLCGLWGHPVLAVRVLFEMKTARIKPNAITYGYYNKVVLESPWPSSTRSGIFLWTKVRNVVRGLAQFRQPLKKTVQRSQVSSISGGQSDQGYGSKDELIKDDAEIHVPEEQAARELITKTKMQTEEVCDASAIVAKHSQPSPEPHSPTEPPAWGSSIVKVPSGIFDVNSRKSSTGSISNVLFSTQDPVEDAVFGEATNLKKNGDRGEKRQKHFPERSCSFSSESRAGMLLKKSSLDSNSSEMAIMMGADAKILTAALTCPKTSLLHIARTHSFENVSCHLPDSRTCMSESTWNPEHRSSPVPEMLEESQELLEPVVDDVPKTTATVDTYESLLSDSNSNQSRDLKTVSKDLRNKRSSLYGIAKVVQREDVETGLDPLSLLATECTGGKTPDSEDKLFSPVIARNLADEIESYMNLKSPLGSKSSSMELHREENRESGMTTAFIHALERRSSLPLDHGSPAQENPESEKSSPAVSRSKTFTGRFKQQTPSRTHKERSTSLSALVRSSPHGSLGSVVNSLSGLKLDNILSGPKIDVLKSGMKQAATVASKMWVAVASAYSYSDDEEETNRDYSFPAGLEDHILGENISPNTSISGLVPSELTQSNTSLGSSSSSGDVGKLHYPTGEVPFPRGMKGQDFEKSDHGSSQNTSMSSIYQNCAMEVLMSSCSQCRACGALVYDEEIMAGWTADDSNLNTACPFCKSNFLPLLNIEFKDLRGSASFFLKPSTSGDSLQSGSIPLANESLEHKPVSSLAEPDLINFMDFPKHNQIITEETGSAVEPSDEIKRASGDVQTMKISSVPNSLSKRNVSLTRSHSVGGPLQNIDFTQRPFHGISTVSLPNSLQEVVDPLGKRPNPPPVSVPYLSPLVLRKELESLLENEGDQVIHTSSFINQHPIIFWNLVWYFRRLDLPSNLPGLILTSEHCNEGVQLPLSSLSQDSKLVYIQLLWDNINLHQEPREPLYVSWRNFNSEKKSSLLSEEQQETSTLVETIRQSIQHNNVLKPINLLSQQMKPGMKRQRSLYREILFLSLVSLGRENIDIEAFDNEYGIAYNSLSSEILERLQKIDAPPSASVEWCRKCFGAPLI", "UniProt Q6P158": "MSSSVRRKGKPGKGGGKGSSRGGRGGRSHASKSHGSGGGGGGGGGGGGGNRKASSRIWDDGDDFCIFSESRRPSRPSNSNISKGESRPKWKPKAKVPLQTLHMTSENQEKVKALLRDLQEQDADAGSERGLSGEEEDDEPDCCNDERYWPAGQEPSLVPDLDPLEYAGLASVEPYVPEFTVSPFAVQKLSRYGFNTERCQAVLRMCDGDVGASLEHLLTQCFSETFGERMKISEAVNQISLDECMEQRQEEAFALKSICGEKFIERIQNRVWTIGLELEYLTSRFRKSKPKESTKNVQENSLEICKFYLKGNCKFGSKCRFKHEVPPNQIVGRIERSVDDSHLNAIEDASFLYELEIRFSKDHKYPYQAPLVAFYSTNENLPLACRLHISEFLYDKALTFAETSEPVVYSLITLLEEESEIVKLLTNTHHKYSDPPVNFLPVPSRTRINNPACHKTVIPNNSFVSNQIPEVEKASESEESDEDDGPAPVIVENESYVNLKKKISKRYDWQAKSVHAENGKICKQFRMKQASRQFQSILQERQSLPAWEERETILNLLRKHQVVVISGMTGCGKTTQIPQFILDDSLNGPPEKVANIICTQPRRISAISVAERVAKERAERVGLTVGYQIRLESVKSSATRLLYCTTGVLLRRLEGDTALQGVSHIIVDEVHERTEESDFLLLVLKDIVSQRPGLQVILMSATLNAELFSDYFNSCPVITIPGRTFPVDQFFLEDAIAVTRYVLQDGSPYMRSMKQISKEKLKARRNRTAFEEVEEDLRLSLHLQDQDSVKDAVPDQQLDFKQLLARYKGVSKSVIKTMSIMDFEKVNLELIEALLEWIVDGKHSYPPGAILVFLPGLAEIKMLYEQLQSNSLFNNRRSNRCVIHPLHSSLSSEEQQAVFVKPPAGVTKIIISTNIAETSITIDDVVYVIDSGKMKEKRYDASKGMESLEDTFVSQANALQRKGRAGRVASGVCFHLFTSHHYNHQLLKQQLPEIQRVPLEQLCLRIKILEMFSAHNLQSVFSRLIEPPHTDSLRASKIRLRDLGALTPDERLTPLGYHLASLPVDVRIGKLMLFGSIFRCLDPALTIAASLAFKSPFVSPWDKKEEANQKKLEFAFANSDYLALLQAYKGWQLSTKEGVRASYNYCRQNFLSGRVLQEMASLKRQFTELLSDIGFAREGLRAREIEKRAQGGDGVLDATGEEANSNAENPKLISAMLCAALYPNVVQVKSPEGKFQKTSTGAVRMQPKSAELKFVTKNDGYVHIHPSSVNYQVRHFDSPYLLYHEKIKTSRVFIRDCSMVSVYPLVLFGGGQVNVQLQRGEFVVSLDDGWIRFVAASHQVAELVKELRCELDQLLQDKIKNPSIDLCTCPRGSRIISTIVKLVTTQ", "UniProt P50570": "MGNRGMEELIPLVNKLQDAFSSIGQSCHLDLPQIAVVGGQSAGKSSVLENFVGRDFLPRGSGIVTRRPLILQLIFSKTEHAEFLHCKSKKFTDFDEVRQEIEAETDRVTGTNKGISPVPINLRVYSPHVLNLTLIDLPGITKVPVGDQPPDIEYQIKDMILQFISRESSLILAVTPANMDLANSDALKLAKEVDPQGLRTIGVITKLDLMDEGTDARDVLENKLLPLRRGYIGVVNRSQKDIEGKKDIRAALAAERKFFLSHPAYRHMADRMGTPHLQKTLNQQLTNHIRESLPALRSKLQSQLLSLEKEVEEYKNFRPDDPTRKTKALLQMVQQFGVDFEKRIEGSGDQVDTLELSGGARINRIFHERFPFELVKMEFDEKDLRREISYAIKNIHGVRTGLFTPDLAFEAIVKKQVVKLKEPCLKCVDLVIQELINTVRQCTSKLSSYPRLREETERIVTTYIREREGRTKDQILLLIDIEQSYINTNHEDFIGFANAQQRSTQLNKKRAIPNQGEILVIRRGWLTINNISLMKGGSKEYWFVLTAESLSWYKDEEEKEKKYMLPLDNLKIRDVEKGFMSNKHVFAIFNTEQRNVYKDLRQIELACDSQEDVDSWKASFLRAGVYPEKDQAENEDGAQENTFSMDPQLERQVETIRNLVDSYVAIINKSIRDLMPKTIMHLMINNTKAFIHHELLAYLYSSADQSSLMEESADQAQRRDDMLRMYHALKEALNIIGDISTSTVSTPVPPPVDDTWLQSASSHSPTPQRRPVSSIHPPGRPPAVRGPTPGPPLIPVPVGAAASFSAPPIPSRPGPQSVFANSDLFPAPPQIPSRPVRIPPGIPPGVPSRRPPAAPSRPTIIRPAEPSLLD"}, "source": "the supplement of paper PMC11732987", "about": "“Enantioselective OTUD7B fragment discovery through chemoproteomics screening and high-throughput optimisation” (Communications Chemistry, 2025)", "note": "This is one part of the list. The data scatter; read single values as rough.", "data": [{"compound": "ClCC(=O)N[C@H]1CCCc2ccccc12", "experiment": "log2 mean competition ratio of IA-DTB cysteine labelling (DMSO/compound) (log2 ratio); higher = stronger cysteine engagement by compound", "conditions": "50 µM; treatment time: 4 h; cell line lysate: HEK293T", "method": "(§1)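 IA-DTB competitive cysteine chemoproteomics in HEK293T RIPA lysate. Lysates were treated with compound 29 or 30 at 50 or 200 µM for 4 h, then IA-DTB (500 µM, 1 h), trypsin-digested, NeutrAvidin-enriched and analysed by diaPASEF. Competition ratio = intensity DMSO / intensity compound (n=4 treated, n=64 DMSO); binding: mean log2 CR ≥ 1 and p ≤ 0.05 plus QC filters. Target is the cysteine site.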", "values": [{"target": "DHX34 C500 (UniProt Q14147)", "log2 mean competition ratio": 0.133}, {"target": "DNAAF2 C762 (UniProt Q9NVR5)", "log2 mean competition ratio": 0.151}, {"target": "DNAJC7 C317 (UniProt Q99615)", "log2 mean competition ratio": -0.179}, {"target": "DNA2 C621 (UniProt P51530)", "log2 mean competition ratio": 0.226}, {"target": "DHX40 C242 (UniProt Q8IX18)", "log2 mean competition ratio": -0.318}, {"target": "DNAJC13 C904 (UniProt O75165)", "log2 mean competition ratio": 0.0828}, {"target": "DGKQ C607 (UniProt P52824)", "log2 mean competition ratio": -0.294}, {"target": "DICER1 C1553 (UniProt Q9UPY3)", "log2 mean competition ratio": -0.276}, {"target": "DENND4C C126 (UniProt Q5VZ89)", "log2 mean competition ratio": -0.356}, {"target": "DHX9 C415 (UniProt Q08211)", "log2 mean competition ratio": -0.119}, {"target": "DHX57 C453 (UniProt Q6P158)", "log2 mean competition ratio": 0.273}, {"target": "DOHH C232 (UniProt Q9BU89)", "log2 mean competition ratio": -0.000583}, {"target": "DHCR24 C252 (UniProt Q15392)", "log2 mean competition ratio": 0.584}, {"target": "DENND4C C1903 (UniProt Q5VZ89)", "log2 mean competition ratio": 0.159}, {"target": "DNM2 C86 (UniProt P50570)", "log2 mean competition ratio": -0.181}, {"target": "DHX16 C486 (UniProt O60231)", "log2 mean competition ratio": -0.0795}, {"target": "DHX33 C414 (UniProt Q9H6R0)", "log2 mean competition ratio": -0.079}, {"target": "DOCK7 C608 (UniProt Q96N67)", "log2 mean competition ratio": -0.068}, {"target": "DHX38 C865 (UniProt Q92620)", "log2 mean competition ratio": -0.122}, {"target": "DNAJC7 C175 (UniProt Q99615)", "log2 mean competition ratio": 0.695}]}, {"compound": "ClCC(=O)N[C@H]1CCCc2ccccc12", "experiment": "log2 mean competition ratio of IA-DTB cysteine labelling (DMSO/compound) (log2 ratio); higher = stronger cysteine engagement by compound", "conditions": "200 µM; treatment time: 4 h; cell line lysate: HEK293T", "method": "as §1", "values": [{"target": "DHX34 C500 (UniProt Q14147)", "log2 mean competition ratio": 0.194}, {"target": "DNAAF2 C762 (UniProt Q9NVR5)", "log2 mean competition ratio": 0.0286}, {"target": "DNAJC7 C317 (UniProt Q99615)", "log2 mean competition ratio": -0.0455}, {"target": "DNA2 C621 (UniProt P51530)", "log2 mean competition ratio": -0.187}, {"target": "DHX40 C242 (UniProt Q8IX18)", "log2 mean competition ratio": 0.112}, {"target": "DNAJC13 C904 (UniProt O75165)", "log2 mean competition ratio": -0.382}, {"target": "DGKQ C607 (UniProt P52824)", "log2 mean competition ratio": 0.317}, {"target": "DICER1 C1553 (UniProt Q9UPY3)", "log2 mean competition ratio": -0.0804}, {"target": "DENND4C C126 (UniProt Q5VZ89)", "log2 mean competition ratio": 0.135}, {"target": "DHX9 C415 (UniProt Q08211)", "log2 mean competition ratio": 0.0164}, {"target": "DHX57 C453 (UniProt Q6P158)", "log2 mean competition ratio": -0.312}, {"target": "DOHH C232 (UniProt Q9BU89)", "log2 mean competition ratio": 0.258}, {"target": "DHCR24 C252 (UniProt Q15392)", "log2 mean competition ratio": -0.135}, {"target": "DENND4C C1903 (UniProt Q5VZ89)", "log2 mean competition ratio": -0.24}, {"target": "DNM2 C86 (UniProt P50570)", "log2 mean competition ratio": -0.0291}, {"target": "DHX16 C486 (UniProt O60231)", "log2 mean competition ratio": 0.256}, {"target": "DHX33 C414 (UniProt Q9H6R0)", "log2 mean competition ratio": -0.047}, {"target": "DOCK7 C608 (UniProt Q96N67)", "log2 mean competition ratio": -0.0795}, {"target": "DHX38 C865 (UniProt Q92620)", "log2 mean competition ratio": -0.0306}, {"target": "DNAJC7 C175 (UniProt Q99615)", "log2 mean competition ratio": 0.539}]}]}
